Source: patent publication US20170081347A1, “FUNCTIONALIZED AZABORINE COMPOUNDS AND AZABORINE-CONTAINING BIARYLCARBOXAMIDES, AND COMPOSITIONS AND METHODS THEREOF” (The Trustees of Boston College, priority 2014, published 2017)

Test: PAMPA (parellel artificial membrane permeability assay)
Format: in vitro ADME
Design: unit not given here

## O=C(NCc1ccncc1)c1ccc(-c2ccccc2)cc1
  PAMPA: −3.8
